± gives the standard deviation of the averaged measurements. The list shows a part of the results, in another mix than the full data. Small differences around the control level are noise.
Compound: Nc1ncnc2c1ncn2[C@@H]1O[C@H](COP(=O)(O)OP(=O)(O)OP(=O)(O)O)[C@@H](O)[C@H]1O [adenosine triphosphate]
Assay: NP40-soluble protein abundance relative to vehicle (solubility fold change) (ratio); higher = more soluble protein in presence of ATP
Summary of the method: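 Jurkat crude lysate (Dounce-homogenised) was treated with eight concentrations from 0.1 to 10 mM for 10 min at room temperature, then 3 min at 37 °C. It was solubilised with 0.8% NP40 and benzonase (60 min, 4 °C) and ultracentrifuged, and the supernatant was TMT-labelled for LC-MS/MS. Intensities were vsn-normalised, and the value is the fold change against the NP40-processed vehicle per replicate, from three independent experiments.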

Sequences of proteins named here, by UniProt entry; tags and fusion partners are left off. A change or cut given only in a name is not applied to a line headed by its entry.
UniProt Q969M3: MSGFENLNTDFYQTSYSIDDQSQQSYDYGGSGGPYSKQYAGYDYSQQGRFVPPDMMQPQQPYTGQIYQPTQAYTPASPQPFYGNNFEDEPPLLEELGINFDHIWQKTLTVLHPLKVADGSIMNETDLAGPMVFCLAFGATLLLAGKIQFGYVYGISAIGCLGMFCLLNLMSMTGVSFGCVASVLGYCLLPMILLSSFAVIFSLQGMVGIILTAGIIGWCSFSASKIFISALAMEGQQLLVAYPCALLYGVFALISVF
UniProt Q8TEB1, whole entry: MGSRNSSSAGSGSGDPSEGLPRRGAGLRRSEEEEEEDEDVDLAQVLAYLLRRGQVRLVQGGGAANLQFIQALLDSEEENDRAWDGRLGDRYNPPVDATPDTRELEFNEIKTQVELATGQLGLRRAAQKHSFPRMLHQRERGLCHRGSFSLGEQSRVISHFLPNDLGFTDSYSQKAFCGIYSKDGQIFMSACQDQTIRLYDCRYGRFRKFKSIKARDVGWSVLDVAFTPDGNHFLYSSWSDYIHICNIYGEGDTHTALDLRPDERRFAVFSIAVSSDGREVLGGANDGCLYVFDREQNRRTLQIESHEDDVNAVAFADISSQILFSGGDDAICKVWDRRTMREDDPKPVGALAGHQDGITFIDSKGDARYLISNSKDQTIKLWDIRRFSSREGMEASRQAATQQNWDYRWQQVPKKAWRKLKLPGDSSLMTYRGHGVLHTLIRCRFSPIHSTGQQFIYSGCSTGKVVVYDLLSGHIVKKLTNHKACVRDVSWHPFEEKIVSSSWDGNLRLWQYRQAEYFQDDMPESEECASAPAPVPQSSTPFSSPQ
UniProt Q92556, whole entry: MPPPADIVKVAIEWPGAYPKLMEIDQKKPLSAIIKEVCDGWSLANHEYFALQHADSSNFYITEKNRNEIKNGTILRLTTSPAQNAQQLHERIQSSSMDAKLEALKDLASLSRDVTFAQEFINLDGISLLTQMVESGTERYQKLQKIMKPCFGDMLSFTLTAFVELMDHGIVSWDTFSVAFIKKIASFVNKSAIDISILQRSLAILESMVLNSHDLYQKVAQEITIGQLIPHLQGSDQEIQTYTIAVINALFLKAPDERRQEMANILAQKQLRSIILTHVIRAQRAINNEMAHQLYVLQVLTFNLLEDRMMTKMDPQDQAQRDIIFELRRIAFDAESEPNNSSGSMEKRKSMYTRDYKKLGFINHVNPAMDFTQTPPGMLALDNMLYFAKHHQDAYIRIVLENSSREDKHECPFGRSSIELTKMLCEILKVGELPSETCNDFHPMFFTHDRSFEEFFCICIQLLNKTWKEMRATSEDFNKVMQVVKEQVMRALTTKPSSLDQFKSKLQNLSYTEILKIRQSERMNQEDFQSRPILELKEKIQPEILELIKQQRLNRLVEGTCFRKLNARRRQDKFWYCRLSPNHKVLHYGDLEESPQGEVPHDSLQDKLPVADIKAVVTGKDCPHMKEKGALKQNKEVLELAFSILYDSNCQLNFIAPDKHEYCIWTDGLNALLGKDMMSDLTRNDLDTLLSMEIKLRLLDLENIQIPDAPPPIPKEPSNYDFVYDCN

Target | NP40-soluble protein abundance (concentration: 0.1mM) | NP40-soluble protein abundance (concentration: 0.5mM) | NP40-soluble protein abundance (concentration: 1mM) | NP40-soluble protein abundance (concentration: 2mM) | NP40-soluble protein abundance (concentration: 4mM) | NP40-soluble protein abundance (concentration: 6mM) | NP40-soluble protein abundance (concentration: 8mM) | NP40-soluble protein abundance (concentration: 10mM)
UniProt Q969M3 and related entries | 0.969 ± 0.15 | 0.94 ± 0.15 | 0.981 ± 0.16 | 0.97 ± 0.19 | 0.974 ± 0.22 | 0.987 ± 0.24 | 0.961 ± 0.19 | 0.996 ± 0.19
UniProt Q8TEB1 and related entries | 0.995 ± 0.098 | 1.01 ± 0.075 | 0.948 ± 0.093 | 0.977 ± 0.06 | 0.961 ± 0.079 | 0.956 ± 0.054 | 0.942 ± 0.066 | 0.918 ± 0.078
ELMO1 (UniProt Q92556) | 1.02 ± 0.05 | 1.06 ± 0.041 | 1.05 ± 0.05 | 1.04 ± 0.043 | 1.02 ± 0.036 | 1 ± 0.067 | 1.04 ± 0.038 | 1.05 ± 0.05
